Values quoted from earlier work as cited in publication PMC9405847, “Design, Synthesis and Pharmacological Evaluation of Novel Conformationally Restricted N-arylpiperazine Derivatives Characterized as D2/D3 Receptor Ligands, Candidates for the Treatment of Neurodegenerative Diseases” (Biomolecules, 2022).

Biological target: D3 receptor
Settings: cited from earlier work

O=C1CCc2ccc(OCCCCN3CCN(c4cccc(Cl)c4Cl)CC3)cc2N1 [aripiprazole]
Ki: 0.8 nM
